Consider 54 sequences from PMC7819943, “Rice protein-binding microarrays: a tool to detect cis-acting elements near promoter regions in rice”.

This is one part of the list.

The target of the test is T1, OsSMF1 (Oryza sativa, UniProt Q6ZLB0 1-436).
T1 sequence: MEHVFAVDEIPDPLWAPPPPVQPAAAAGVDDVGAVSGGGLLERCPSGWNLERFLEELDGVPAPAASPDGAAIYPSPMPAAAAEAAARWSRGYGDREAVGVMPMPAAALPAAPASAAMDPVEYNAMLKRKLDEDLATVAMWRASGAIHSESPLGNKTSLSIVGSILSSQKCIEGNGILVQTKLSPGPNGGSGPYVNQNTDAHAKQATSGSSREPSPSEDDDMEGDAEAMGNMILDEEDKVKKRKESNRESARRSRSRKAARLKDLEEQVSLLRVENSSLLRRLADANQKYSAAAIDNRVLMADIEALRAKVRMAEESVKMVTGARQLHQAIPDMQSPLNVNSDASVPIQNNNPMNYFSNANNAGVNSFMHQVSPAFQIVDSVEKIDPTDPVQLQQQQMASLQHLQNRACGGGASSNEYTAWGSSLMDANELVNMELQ
Put plainly: protein-binding microarray (RPBM); PBS, 2% BSA, 51.3 ng/ul salmon testes DNA, 50 uM zinc acetate, 200 nM TF, 25 C, 1 h; high values mean tight binding. The note with it: protein: recombinant; tags: N-terminal polyhistidine and DsRed monomer fusion (pET32a); chain copies: 2; label: CyDye5-dUTP incorporated in the synthesized complementary strand; 3' TTTTT single-stranded linker to array surface; dsDNA, one strand shown. Put shortly:
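Binding signal is defined as the fluorescence intensity of each feature in arbitrary units, read on an Axon 4000B scanner. Transcription factors with N-terminal polyhistidine and DsRed fusions came from E. coli BL21-CodonPlus and were purified on Ni–NTA. They were incubated at 200 nM for 1 h at 25 °C on a custom Agilent array that had been made double-stranded with Cy5-dUTP, with 50 µM zinc acetate present, and the array was washed.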
With “CCTGCCTACGTGCCGCCGGTAGCTCAAGTCGATAGGCAAGCGGAGTCACCTAGTGCAG”, the binding signal is 3590 fluorescence intensity (a.u.).
As to “ATTACATATGTAAGTGACGTGCAAGTGGGTTTTACTACGTCGGAGTCACCTAGTGCAG”, the binding signal was 7810 fluorescence intensity (a.u.).
As for “AAAAGTATAGTTGGTTGTCATGTATAACTCTCAACCTCTACGGAGTCACCTAGTGCAG”, the figure is 3350 fluorescence intensity (a.u.); as for “CCGCCAGTAGTGCCCGTCCCCAGCGCATCCGCAGACGATCCGGAGTCACCTAGTGCAG”, 3600 fluorescence intensity (a.u.); as for “CGGGAGAGGGAGGTGATGATGGGGCGGCGGAGGATTGGAGCGGAGTCACCTAGTGCAG”, 4900 fluorescence intensity (a.u.).
Turning to “ACGAGGCCGATGCCGTGTCGCCCGCCGCCGAATCATCGCCCGGAGTCACCTAGTGCAG”, the binding signal is 4920 fluorescence intensity (a.u.).
In the case of “CGATATATGCCTTGATGATCTACGGGAGGATAAGCCTCGGCGGAGTCACCTAGTGCAG”, the binding signal was 13100 fluorescence intensity (a.u.).
In the case of “CAGACGGATTATGTAATTTGTTTTATTATTAATTAGTCTACGGAGTCACCTAGTGCAG”, the binding signal was 3890 fluorescence intensity (a.u.).
Then “TGATAAATTACCCATCTATTAGTCATACCAGTGGCTTTGTCGGAGTCACCTAGTGCAG”, with 3500 fluorescence intensity (a.u.); and “GCCGCCGCCGCCGCCGCCGCCGCTGTGTGTACGACTACGACGGAGTCACCTAGTGCAG”, with 3250 fluorescence intensity (a.u.); and “TCAATAGATTTTCAGATACCTACGTGGTACATCTAGTGCTCGGAGTCACCTAGTGCAG”, with 4090 fluorescence intensity (a.u.).
Turning to “TTAAATTTCCCCTTGAAACCACTCTGAAACATTTGTAGAGCGGAGTCACCTAGTGCAG”, the binding signal is 3360 fluorescence intensity (a.u.).
Regarding “TCTGCTGCGTGACGACGCCTCGTCGCCTTCTCTACCTCTCCGGAGTCACCTAGTGCAG”, the binding signal is 3870 fluorescence intensity (a.u.).
As for “ACTCGTCGCCCTCTCATCTCATGTTGTAGTATTCCCTCCGCGGAGTCACCTAGTGCAG”, the figure is 3490 fluorescence intensity (a.u.).
As for “ACCATCGGCACGTCACAACTACTTTTACACGTTTTATAAACGGAGTCACCTAGTGCAG”, the figure is 3720 fluorescence intensity (a.u.).
Regarding “ACTTTGTTTGCACTTAAGTTGGGTGATGTGTTGTATCCGGCGGAGTCACCTAGTGCAG”, the binding signal was 3710 fluorescence intensity (a.u.).
In the case of “AGAACAAAACCATATGCCCTATATGTCATACACATGTAATCGGAGTCACCTAGTGCAG”, the binding signal was 3620 fluorescence intensity (a.u.).
“TGCACAAGATGACCTGTACGTGTCGCTTGTTTGCCACGCCCGGAGTCACCTAGTGCAG”: the binding signal is 9190 fluorescence intensity (a.u.).
Consider “CCCCACCCACCGCCTGCCAGCGCCACCCCACCTCGCGCCTCGGAGTCACCTAGTGCAG”, for which the binding signal is 3180 fluorescence intensity (a.u.).
In the case of “AACCTTTGTAACTACTACCTCCATATTTTAATGTATGACGCGGAGTCACCTAGTGCAG”, the binding signal was 3200 fluorescence intensity (a.u.).
Turning to “CGCATTTTACTAGGAATAAGTCCATTTGTCATCCCTCATCCGGAGTCACCTAGTGCAG”, the binding signal is 3180 fluorescence intensity (a.u.).
On to “ACATGCTGATAAGTGGGCCCAAATATCTACCACGTAAGTGCGGAGTCACCTAGTGCAG”, for which the binding signal was 4710 fluorescence intensity (a.u.).
As for “GCTCAACGCGCCGCCTCTGCGGTGTCAGCTGCTGGGCCCCCGGAGTCACCTAGTGCAG”, the figure is 7230 fluorescence intensity (a.u.); as for “GATCACTTACTTTTAAGAGTCACGAATTGAACTTATTCCACGGAGTCACCTAGTGCAG”, 3430 fluorescence intensity (a.u.); as for “TTATCTTGCTGATGGCATATATCCTTCTTGGGCCACATTTCGGAGTCACCTAGTGCAG”, 4140 fluorescence intensity (a.u.).
Turning to “CCTCCCGCTGATCGCGACCAGTCCACGTTGCCCATCTTCTCGGAGTCACCTAGTGCAG”, the binding signal is 5440 fluorescence intensity (a.u.).
As for “GAAGTAGGACACTCAGCAGTCTCAGCTCTCACTCTCCGTCCGGAGTCACCTAGTGCAG”, the binding signal is 3170 fluorescence intensity (a.u.).
As for “GAGAGTATTTTGACCTGTATACAGTCAGAGATGTACACTACGGAGTCACCTAGTGCAG”, the binding signal is 4420 fluorescence intensity (a.u.).
As for “CTCTAGCTCTACGTGAACACCTTGGCCGTCATCAAATCCGCGGAGTCACCTAGTGCAG”, the figure is 3690 fluorescence intensity (a.u.); as for “CATCGTCCGCCGTGACACGCTGGCGGAGTCCGTGGTGCTACGGAGTCACCTAGTGCAG”, 5010 fluorescence intensity (a.u.); as for “AACTGACGAACTGAATACCATCATATGTATTCTATAAGCGCGGAGTCACCTAGTGCAG”, 31400 fluorescence intensity (a.u.).
Then “CTCCTGGTCCGGGGCAGTTCAGTTTGGCCATACGTGGCGTCGGAGTCACCTAGTGCAG”, with 7600 fluorescence intensity (a.u.).
For the sequence “TGAGATGATGTGTGTTGTTCATTGTGCTTGTGTTGGAGATCGGAGTCACCTAGTGCAG”, the binding signal was 4970 fluorescence intensity (a.u.).
Turning to “TAGGCAAGCCGCAAGACGAAGAAGATGAACACGACAGTGCCGGAGTCACCTAGTGCAG”, the binding signal is 3240 fluorescence intensity (a.u.).
Then “AGGTGGTCTTCGCGCGCCACCGCTCCGGCCGCCGTCGCCCCGGAGTCACCTAGTGCAG”, with 16900 fluorescence intensity (a.u.); and “ATTAACGTTTCACCCGCGCGCGCCCACCTGCCGCTGCAATCGGAGTCACCTAGTGCAG”, with 3300 fluorescence intensity (a.u.).
Consider “GGTGGTGGTGGTGGGTTTTGCTATCTCTGCGTGCGTGTTCCGGAGTCACCTAGTGCAG”, for which the binding signal is 4410 fluorescence intensity (a.u.).
With “GACCTGTAGCCCATCACAATCAACTCGACAAGAACATCGACGGAGTCACCTAGTGCAG”, the binding signal was 5720 fluorescence intensity (a.u.).
Take “CCTCGATTCCTCTCCCTCCCAATCCACCTCCTCCTCCTCGCGGAGTCACCTAGTGCAG”: the binding signal is 3160 fluorescence intensity (a.u.).
“ACCGACTGACTCATAATCTCTTCTCCTTGCTCTCTAGTTTCGGAGTCACCTAGTGCAG”: the binding signal was 6710 fluorescence intensity (a.u.).
As for “GCTCGCTCGGCCACCTCGCCGCACCACCGTGTCACCCGCCCGGAGTCACCTAGTGCAG”, the figure is 4490 fluorescence intensity (a.u.); as for “GCTATGTCCCTTTTGCTTATACCTTGGGGCCACACCCTTTCGGAGTCACCTAGTGCAG”, 19800 fluorescence intensity (a.u.); as for “AGGGAGTAAGTAGCTAAATACCTACACTAATACTTAAATACGGAGTCACCTAGTGCAG”, 14300 fluorescence intensity (a.u.).
As for “GTGGGAGTCGGATCAAGGGTGGAGAAAAGCGCAACGCAGCCGGAGTCACCTAGTGCAG”, the binding signal was 23400 fluorescence intensity (a.u.).
As for “TAGTGACCTCACCGATAAAACCCCTGCCACGTCGACAGGACGGAGTCACCTAGTGCAG”, the binding signal was 14400 fluorescence intensity (a.u.).
For the sequence “CGCCCACGGCGTGTCCCCTGCGTGCGTGGCGCACCCGCACCGGAGTCACCTAGTGCAG”, the binding signal was 7240 fluorescence intensity (a.u.).
Take “CACCGGCTCGTCCGTACCGGCCGTGGCCGCCATCGTCACGCGGAGTCACCTAGTGCAG”: the binding signal was 4180 fluorescence intensity (a.u.).
“GTGAGCGGAGTGGGAGGGGAGGCGTCGGTGGCGTCAGGCCCGGAGTCACCTAGTGCAG”: the binding signal was 5160 fluorescence intensity (a.u.).
Regarding “GGAATAGATAACACATCTGTCCTGCAAGCTACTGATGAGTCGGAGTCACCTAGTGCAG”, the binding signal was 3410 fluorescence intensity (a.u.).
In the case of “TAGGTTAGTGGTGGCTGGGTCGTCACGTCATTGCATTGCACGGAGTCACCTAGTGCAG”, the binding signal is 3270 fluorescence intensity (a.u.).
As to “GCAATAATGAGCCAAACCAAGGCTTACCTGAGTCAACACACGGAGTCACCTAGTGCAG”, the binding signal is 4350 fluorescence intensity (a.u.).
Turning to “ATATTTTATATGTGCAAGTATGTGTCATGTGTGCATTTGTCGGAGTCACCTAGTGCAG”, the binding signal was 4560 fluorescence intensity (a.u.).
On to “ATCCCATGACATGTGGGTCTGATCAATGGTGACTGACCCACGGAGTCACCTAGTGCAG”, for which the binding signal was 3360 fluorescence intensity (a.u.).
Turning to “AAGATTTCTCTTATTTATTAGAGCGACACGTGACATCGCTCGGAGTCACCTAGTGCAG”, the binding signal is 4260 fluorescence intensity (a.u.).
